Test results reported in the supplement of paper PMC10849652.
This is one part of the list.

Sequences of proteins named here, by UniProt entry; tags and fusion partners are left off. A change or cut given only in a name is not applied to a line headed by its entry.
UniProt Q9NWH9: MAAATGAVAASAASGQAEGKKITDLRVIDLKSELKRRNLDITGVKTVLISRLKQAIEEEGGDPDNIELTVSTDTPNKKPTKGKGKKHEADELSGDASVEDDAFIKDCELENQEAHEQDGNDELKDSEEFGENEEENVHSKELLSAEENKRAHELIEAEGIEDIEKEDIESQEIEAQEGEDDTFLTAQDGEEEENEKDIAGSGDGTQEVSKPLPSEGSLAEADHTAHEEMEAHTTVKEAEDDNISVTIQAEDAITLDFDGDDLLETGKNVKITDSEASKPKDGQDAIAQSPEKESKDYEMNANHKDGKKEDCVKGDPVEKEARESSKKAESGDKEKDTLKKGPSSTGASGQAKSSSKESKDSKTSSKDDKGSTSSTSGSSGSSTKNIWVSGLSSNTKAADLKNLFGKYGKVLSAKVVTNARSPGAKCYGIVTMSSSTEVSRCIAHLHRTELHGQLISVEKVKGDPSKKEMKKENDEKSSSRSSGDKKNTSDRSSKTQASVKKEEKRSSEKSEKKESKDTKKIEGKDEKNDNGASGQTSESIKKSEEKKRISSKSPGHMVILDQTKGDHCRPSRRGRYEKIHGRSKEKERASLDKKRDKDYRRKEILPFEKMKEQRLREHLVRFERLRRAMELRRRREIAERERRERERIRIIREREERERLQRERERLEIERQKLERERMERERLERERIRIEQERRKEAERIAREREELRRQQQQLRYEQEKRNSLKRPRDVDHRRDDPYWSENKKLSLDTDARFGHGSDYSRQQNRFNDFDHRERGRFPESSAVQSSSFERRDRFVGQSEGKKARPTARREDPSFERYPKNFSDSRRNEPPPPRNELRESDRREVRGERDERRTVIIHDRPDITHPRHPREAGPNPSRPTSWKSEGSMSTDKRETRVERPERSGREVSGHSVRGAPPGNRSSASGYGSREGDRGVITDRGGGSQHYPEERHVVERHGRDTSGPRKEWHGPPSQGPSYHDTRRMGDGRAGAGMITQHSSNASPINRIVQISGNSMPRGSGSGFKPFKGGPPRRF

Experiments:
Assay in all cases: log2 fold change, soluble protein after heating vs DMSO (PISA); higher = thermal stabilisation; K562 cells, 10 uM, 30 min; active = over 0.2 and 3.5 SD of the protein, either way, in both replicates (recomputed)
[1] = compound: CNC(=O)c1ccc(Nc2ncc(C(F)(F)F)c(NCc3nccnc3N(C)S(C)(=O)=O)n2)cc1 [defactinib]
Method in brief: (§1)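 Quantification of soluble protein used TMTpro 16plex LC-MS/MS, with channel sums equalised. Samples were the supernatant after 21,000xg for 90 min of pooled aliquots from K562 cells (2×10^6 cells/mL) treated with 10 μM compound for 30 min, heated for 3 min over 48°C-58°C, and extracted in PBS with 0.5% NP-40 at 4°C. Values, from duplicates, describe thermal stability against control samples on a log2 fold-change scale.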

[2] = compound: CNCc1ccc(-c2[nH]c3cc(F)cc4c3c2CCNC4=O)cc1 [rucaparib]
Method in brief: as §1

[3] = compound: CNc1nc(-c2ccc3c(N)n[nH]c3c2)cc(N2C[C@@H](C(=O)NC3CCCCC3)CC[C@H]2C)n1
Method in brief: as §1

[4] = compound: COC(=O)N[C@@H](C)CNc1nccc(-c2cn(C(C)C)nc2-c2cc(Cl)cc(NS(C)(=O)=O)c2F)n1 [encorafenib]
Method in brief: as §1

[5] = compound: COC(=O)[C@H](CCSC)NC(=O)C1=C(C=C(C=C1)NC[C@H](CS)N)C2=CC=CC=C2
Method in brief: as §1

[6] = compound: COC1=CC=C(C=C1)CN2C=CC3=C2C=C(C=C3)C(=O)NO
Method in brief: as §1

[7] = compound: CON(C)C(=O)N1N=C(c2cc(F)ccc2F)S[C@@]1(CCCN)c1ccccc1 [filanesib]
Method in brief: as §1

[8] = compound: CO[C@H]1C[C@@H]2CC[C@@H](C)[C@@](O)(O2)C(=O)C(=O)N2CCCC[C@H]2C(=O)O[C@H]([C@H](C)C[C@@H]2CC[C@H](n3cnnn3)[C@H](OC)C2)CC(=O)[C@H](C)/C=C(\C)[C@@H](O)[C@@H](OC)C(=O)[C@H](C)C[C@H](C)/C=C/C=C/C=C/1C [zotarolimus]
Method in brief: as §1

[9] = compound: COc1cc(C(=O)O)ccc1NC(=O)[C@@H]1N[C@@H](CC(C)(C)C)[C@](C#N)(c2ccc(Cl)cc2F)[C@H]1c1cccc(Cl)c1F [idasanutlin]
Method in brief: as §1

[10] = compound: COc1cc(Nc2ncc3c(n2)-c2ccc(Cl)cc2C(c2c(F)cccc2OC)=NC3)ccc1C(=O)O [alisertib]
Method in brief: as §1

[11] = compound: COc1cc2nc(-c3cc(F)ccc3O)nc(N[C@@H]3CNC[C@H]3C(C)(C)O)c2cc1OC
Method in brief: as §1

[12] = compound: COc1cc2ncnc(Nc3ccc(F)c(Cl)c3)c2cc1OCCCN1CCOCC1 [gefitinib]
Method in brief: as §1

[13] = compound: COc1cccc2cc(-c3nc([C@H]4CC[C@H](C(=O)O)CC4)n4ncnc(N)c34)[nH]c12
Method in brief: as §1

[14] = compound: CS(=O)(=O)CCNCc1ccc(-c2ccc3ncnc(Nc4ccc(OCc5cccc(F)c5)c(Cl)c4)c3c2)o1 [lapatinib]
Method in brief: as §1

[15] = compound: CS(=O)(=O)N1CCN(Cc2cc3nc(-c4cccc5[nH]ncc45)nc(N4CCOCC4)c3s2)CC1 [pictilisib]
Method in brief: as §1

[16] = compound: CS(=O)(=O)c1ccc(-c2cnc(N)c(C(=O)Nc3ccccc3)n2)cc1
Method in brief: as §1

[17] = compound: C[C@@H](Oc1cc(-c2cnn(C3CCNCC3)c2)cnc1N)c1c(Cl)ccc(F)c1Cl [crizotinib]
Method in brief: as §1

[18] = compound: C[C@@H]1COCCN1C2=NC(=NC(=C2)C3(CC3)S(=O)(=O)C)C4=C5C=CNC5=CC=C4
Method in brief: as §1

[19] = compound: C[C@H](C1=CC=C(C=C1)C(=O)NC2=C3C=CNC3=NC=C2)N
Method in brief: as §1

[20] = compound: C[C@H](Nc1ncnc2nc[nH]c12)c1cc2cccc(Cl)c2c(=O)n1-c1ccccc1 [duvelisib]
Method in brief: as §1

[21] = compound: Cc1cc(Nc2cc(CN3CCOCC3)c3nc(C)c(Cc4ccc(Cl)cc4F)n3n2)n[nH]1 [gandotinib]
Method in brief: as §1

[22] = compound: Cc1cc(Nc2cc(N3CCN(C)CC3)nc(Sc3ccc(NC(=O)C4CC4)cc3)n2)n[nH]1 [tozasertib]
Method in brief: as §1

[23] = compound: Cc1cc(SCc2sc(-c3ccc(C(F)(F)F)cc3)nc2C)ccc1OCC(=O)O
Method in brief: as §1

[24] = compound: Cc1ccc(-n2nc(C(C)(C)C)cc2NC(=O)Nc2ccc(OCCN3CCOCC3)c3ccccc23)cc1 [doramapimod]
Method in brief: as §1

[25] = compound: Cc1ccc(C(=O)N(CCCN)[C@@H](c2nc3cc(Cl)ccc3c(=O)n2Cc2ccccc2)C(C)C)cc1 [ispinesib]
Method in brief: as §1

[26] = compound: Cc1ccc(NC(=O)c2ccc(CN3CC[C@H](N(C)C)C3)c(C(F)(F)F)c2)cc1Nc1nccc(-c2cncnc2)n1 [bafetinib]
Method in brief: as §1

[27] = compound: Cc1cccc(CC(=O)N2CCc3c2ccc(-c2cn(C)c4ncnc(N)c24)c3F)n1
Method in brief: as §1

[28] = compound: Cc1cn(-c2cc(NC(=O)c3ccc(C)c(Nc4nccc(-c5cccnc5)n4)c3)cc(C(F)(F)F)c2)cn1 [nilotinib]
Method in brief: as §1

[29] = compound: Cc1nc(Nc2n[nH]c3c2CN(C(=O)N[C@H](CN(C)C)c2ccccc2)C3(C)C)c2sccc2n1
Method in brief: as §1

[30] = compound: Cc1nc(Nc2ncc(C(=O)Nc3c(C)cccc3Cl)s2)cc(N2CCN(CCO)CC2)n1 [dasatinib]
Method in brief: as §1

[31] = compound: Cc1ncc(-c2ccnc(Nc3ccc(S(C)(=O)=O)cc3)n2)n1C(C)C
Method in brief: as §1

[32] = compound: Cc1sc2c(c1C)C(c1ccc(Cl)cc1)=N[C@@H](CC(=O)OC(C)(C)C)c1nnc(C)n1-2
Method in brief: as §1

[33] = compound: Cn1cc(-c2ccc3c(c2)CCN3C(=O)Cc2cccc(C(F)(F)F)c2)c2c(N)ncnc21
Method in brief: as §1

[34] = compound: Cn1cc(-c2ccc3nnc(C(F)(F)c4ccc5ncccc5c4)n3n2)cn1
Method in brief: as §1

[35] = compound: Cn1cncc1[C@@](N)(c1ccc(Cl)cc1)c1ccc2c(c1)c(-c1cccc(Cl)c1)cc(=O)n2C [tipifarnib]
Method in brief: as §1

[36] = compound: FC(F)(F)c1ccc(/C=C/c2nc(COc3ccc(CCCCn4ccnn4)cc3)co2)cc1 [mubritinib]
Method in brief: as §1

[37] = compound: NC(=O)Nc1cc(-c2cccc(F)c2)sc1C(=O)N[C@H]1CCCNC1
Method in brief: as §1

[38] = compound: NC(=O)c1cnc(N[C@@H]2CCCC[C@@H]2N)nc1Nc1cccc(-n2nccn2)c1
Method in brief: as §1

[39] = compound: NC1(c2ccc(-c3nc4ccn5c(=O)[nH]nc5c4cc3-c3ccccc3)cc2)CCC1
Method in brief: as §1

[40] = compound: NCC(=O)Nc1ccc(-n2nc(C(F)(F)F)cc2-c2ccc3c(ccc4ccccc43)c2)cc1
Method in brief: as §1

[41] = compound: Nc1ccccc1NC(=O)c1ccc(CNC(=O)OCc2cccnc2)cc1 [entinostat]
Method in brief: as §1

[42] = compound: O=C(CCCCCCC(=O)Nc1ccccc1)NO [vorinostat]
Method in brief: as §1

[43] = compound: O=C(CCCCCCNC(=O)c1cnc(N(c2ccccc2)c2ccccc2Cl)nc1)NO [citarinostat]
Method in brief: as §1

[44] = compound: O=C(O)c1ccc2c(c1)nc(Nc1cccc(Cl)c1)c1ccncc12 [silmitasertib]
Method in brief: as §1

[45] = compound: O=C1NC(=O)C(c2cnc3ccccn23)=C1c1cn2c3c(cc(F)cc13)CN(C(=O)N1CCCCC1)CC2
Method in brief: as §1

[46] = compound: c1cc(OCCN2CCCCC2)cc(-c2n[nH]c3ccc(-c4nnc[nH]4)cc23)c1
Method in brief: as §1

[47] = compound: c1ccc([C@@H]2C[C@H]2NC2CCNCC2)cc1
Method in brief: as §1

[48] = compound: c1cn2cc(-c3ccc4cn[nH]c4c3)nc(Nc3ccc(N4CCOCC4)cc3)c2n1 [entospletinib]
Method in brief: as §1

Measured: log2 fold change

SLTM (UniProt Q9NWH9)
inactive: [1] 0.076 | [2] 0.177 | [3] -0.014 | [4] 0.027 | [5] 0.083 | [6] -0.054 | [7] 0.475 | [8] 0.042 | [9] 0.338 | [10] -0.085 | [11] -0.022 | [12] -0.029 | [13] 0.013 | [14] -0.05 | [15] -0.069 | [16] -0.047 | [17] 0.05 | [18] -0.528 | [19] 0.326 | [20] -0.165 | [21] 0.162 | [22] 0.136 | [23] -0.105 | [24] 0.158 | [25] 0.28 | [26] 0.049 | [27] -0.051 | [28] 0.07 | [29] 0.23 | [30] 0.193 | [31] -0.065 | [32] 0.043 | [33] -0.248 | [34] -0.143 | [35] 0.101 | [36] 0.024 | [37] 0.072 | [38] 0.084 | [39] 0.014 | [40] 0.052 | [41] -0.123 | [42] -0.073 | [43] -0.082 | [44] 0.134 | [45] 0.131 | [46] -0.082 | [47] 0.033 | [48] 0.083
